This note sets out measurements from patent US20100286057A1.

Protein sequences, listed by entry. Tags and fused reporters are not part of them. Lines headed by an entry give the natural chain unless they say otherwise; changes in a name come on top.
UniProt Q07812: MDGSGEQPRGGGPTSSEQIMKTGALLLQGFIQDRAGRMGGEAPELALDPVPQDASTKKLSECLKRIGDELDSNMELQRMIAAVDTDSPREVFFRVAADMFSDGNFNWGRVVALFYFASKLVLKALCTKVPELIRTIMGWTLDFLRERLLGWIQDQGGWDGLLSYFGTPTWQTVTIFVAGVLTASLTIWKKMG

No constants are given. Whether binding was seen depends on the method and setting. Some entries that bind do so weakly or less than the wild type.

Test [1] deals with BAX (Homo sapiens (Human)) (UniProt Q07812). The test can be described thus: assay not named.
Test [2] shares this target. The test can be described thus: 1H-15N HSQC / PRE NMR.

B1: myristoylated BID SAHB compound (peptide)
peptide: ESQEDIIRNIARHLAQVGDEMDRSI
modifications: amino terminus capped with myristic acid; hydrocarbon staple
For the molecule B1, the binding result in test [1] is given as “binds”.

B2: BIM SAHB(A164C-MTSL) (peptide)
peptide: EIWIAQELRRIGDEFNAYYCRR
modifications: MTSL nitroxide spin label on Cys 164; hydrocarbon staple
For the molecule B2, in test [2], the binding result is “binds”.

B3: BID SAHB (peptide)
peptide: ESQEDIIRNIARHLAQVGDEMDRSI
modifications: hydrocarbon staple
Regarding B3, the binding entry in test [1] was “binds”.

B4: BIM SAHB(W147C-MTSL) (peptide)
peptide: EICIAQELRRIGDEFNAYYARR
modifications: MTSL nitroxide spin label on Cys 147; hydrocarbon staple
In the case of B4, the binding entry in test [2] was “binds”.
